Measured values reported in the supplement of paper PMC4604168 (melanoma cell lines).
The list shows a part of the results. Single values are uncertain, as repeats are few or missing.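 Cells were imaged in 1,536-well plates, and nuclei stained with an antibody against cleaved PARP were counted against all DNA-stained nuclei to give the apoptosis fraction. Screening doses were chosen to leave most cells alive, and resting and induced cleaved-PARP levels differ strongly between cell lines.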

Assays:
Assay in all cases: cleaved PARP positive nuclei fraction relative to DMSO control; melanoma cells; higher = more apoptosis
Conditions in all cases: library dose: low library concentration; 72 h
MZ2-MEL = test system: MZ2-MEL
MeWo = test system: MeWo
RPMI7951 = test system: RPMI7951
RVH-421 = test system: RVH-421
SkMel28 = test system: SkMel28
SkMel2 = test system: SkMel2
SkMel30 = test system: SkMel30
SkMel5 = test system: SkMel5
UACC257 = test system: UACC257
UACC62 = test system: UACC62
WM115 = test system: WM115
WM1716 = test system: WM1716
WM1745 = test system: WM1745
WM3526 = test system: WM3526
WM3619 = test system: WM3619
WM451Lu = test system: WM451Lu

Row | SMILES | cleaved PARP positive nuclei fraction (MZ2-MEL) [%] | cleaved PARP positive nuclei fraction (MeWo) [%] | cleaved PARP positive nuclei fraction (RPMI7951) [%] | cleaved PARP positive nuclei fraction (RVH-421) [%] | cleaved PARP positive nuclei fraction (SkMel28) [%] | cleaved PARP positive nuclei fraction (SkMel2) [%] | cleaved PARP positive nuclei fraction (SkMel30) [%] | cleaved PARP positive nuclei fraction (SkMel5) [%] | cleaved PARP positive nuclei fraction (UACC257) [%] | cleaved PARP positive nuclei fraction (UACC62) [%] | cleaved PARP positive nuclei fraction (WM115) [%] | cleaved PARP positive nuclei fraction (WM1716) [%] | cleaved PARP positive nuclei fraction (WM1745) [%] | cleaved PARP positive nuclei fraction (WM3526) [%] | cleaved PARP positive nuclei fraction (WM3619) [%] | cleaved PARP positive nuclei fraction (WM451Lu) [%]
1 | CC[C@]1(O)C[C@H]2CN(CCc3c([nH]c4ccccc34)[C@@](C(=O)OC)(c3cc4c(cc3OC)N(C=O)[C@H]3[C@@](O)(C(=O)OC)[C@H](OC(C)=O)[C@]5(CC)C=CCN6CC[C@]43[C@@H]65)C2)C1 [vincristine] + N#Cc1c(O)c2c(-c3ccc(-c4ccccc4O)cc3)csc2[nH]c1=O [A769662] (first compound 0.0001 µM, partner dose 2 µM) | 139 | 206 | 115 | 176 | 147 | 87.7 | 99.8 | 91.9 | 96.4 | 133 | 1220 | 101 | 103 | 87.3 | 156 | 163
2 | O=c1[nH]nc(Sc2ncc([N+](=O)[O-])s2)n1-c1ccc2c(c1)OCCO2 + O=C(O)C(=O)Nc1sc2c(c1C(=O)O)CCNC2 [TCS401] (first compound 0.2 µM, partner dose 1.66667 µM) | 79.2 | 24.1 | 113 | 146 | 98.9 | 75.5 | 125 | 77.7 | 90.6 | 98.8 | 190 | 324 | 111 | 76 | 96.5 | 70.6
3 | Cc1cn(-c2cc(NC(=O)c3ccc(C)c(Nc4nccc(-c5cccnc5)n4)c3)cc(C(F)(F)F)c2)cn1 [nilotinib] + CS(=O)(=O)CCNCc1ccc(-c2ccc3ncnc(Nc4ccc(OCc5cccc(F)c5)c(Cl)c4)c3c2)o1 [lapatinib] (first compound 0.2 µM, partner dose 0.8 µM) | 209 | 103 | 42.3 | 74.9 | 41.9 | 43.8 | 175 | 89.2 | 89.2 | 123 | 69.1 | 38.5 | 108 | 41.2 | 68.5 | 168
4 | COc1cc([C@@H]2c3cc4c(cc3[C@@H](O[C@@H]3O[C@@H]5CO[C@@H](C)O[C@H]5[C@H](O)[C@H]3O)[C@H]3COC(=O)[C@H]23)OCO4)cc(OC)c1O [etoposide] + Cn1cc(/C=C2\C(=O)Nc3cccnc32)c2ccccc21 [GW441756] (first compound 0.02 µM, partner dose 0.4 µM) | 102 | 45.3 | 70.7 | 78.2 | 19.3 | 31.6 | 83 | 81.8 | 48.6 | 39.2 | 102 | 119 | 87.2 | 60.6 | 104 | 35.7
5 | O=c1[nH]nc(Sc2ncc([N+](=O)[O-])s2)n1-c1ccc2c(c1)OCCO2 + COc1cc(N2CCC(N3CCN(C)CC3)CC2)ccc1Nc1ncc(Cl)c(Nc2ccccc2S(=O)(=O)C(C)C)n1 [NVP-TAE684] (first compound 0.2 µM, partner dose 0.08 µM) | 78.9 | 93.6 | 161 | 64.6 | 108 | 132 | 150 | 76.1 | 134 | 242 | 80.5 | 99.2 | 120 | 68.7 | 122 | 73.5
6 | CC[C@]1(O)C[C@H]2CN(CCc3c([nH]c4ccccc34)[C@@](C(=O)OC)(c3cc4c(cc3OC)N(C=O)[C@H]3[C@@](O)(C(=O)OC)[C@H](OC(C)=O)[C@]5(CC)C=CCN6CC[C@]43[C@@H]65)C2)C1 [vincristine] + COc1cc(N2CCC(N3CCN(C)CC3)CC2)ccc1Nc1ncc(Cl)c(Nc2ccccc2S(=O)(=O)C(C)C)n1 [NVP-TAE684] (first compound 0.0001 µM, partner dose 0.08 µM) | 74.6 | 214 | 139 | 108 | 252 | 92.7 | 210 | 101 | 418 | 582 | 1240 | 152 | 109 | 115 | 164 | 267
7 | Cc1ccc(Nc2nccc(N(C)c3ccc4c(C)n(C)nc4c3)n2)cc1S(N)(=O)=O [Pazopanib] + O=C(Nc1ccccc1)c1cc([N+](=O)[O-])ccc1Cl [GW9662] (first compound 0.4 µM, partner dose 2 µM) | 93.8 | 86.1 | 141 | 86.9 | 147 | 82 | 93.3 | 77.4 | 183 | 105 | 218 | 56 | 153 | 80.8 | 110 | 136
8 | Cc1cn(-c2cc(NC(=O)c3ccc(C)c(Nc4nccc(-c5cccnc5)n4)c3)cc(C(F)(F)F)c2)cn1 [nilotinib] + N#Cc1c(O)c2c(-c3ccc(-c4ccccc4O)cc3)csc2[nH]c1=O [A769662] (first compound 0.2 µM, partner dose 2 µM) | 47.5 | 81.5 | 85.4 | 107 | 33.1 | 132 | 177 | 70.9 | 5.74 | 257 | 146 | 23.1 | 87.3 | 81.5 | 82.6 | 258
9 | O=C(/C=C/c1cccnc1)NCCCCC1CCN(C(=O)c2ccccc2)CC1 + CCCCCCCCCCCC1=C(O)C(=O)C=C(O)C1=O [Embelin] (first compound 0.01 µM, partner dose 1.2 µM) | 203 | 141 | 107 | 76 | 37.7 | 235 | 38.6 | 157 | 81.5 | 64.7 | 275 | 109 | 76 | 67.4 | 105 | 205
10 | Cc1cc(Nc2cc(N3CCN(C)CC3)nc(Sc3ccc(NC(=O)C4CC4)cc3)n2)n[nH]1 [Tozasertib] + C[C@@H]1CCN(C(=O)CC#N)C[C@@H]1N(C)c1ncnc2[nH]ccc12 [CP690550] (first compound 0.006 µM, partner dose 1 µM) | 108 | 32.4 | 87.4 | 26.1 | 59.3 | 125 | 235 | 134 | 50.9 | 105 | 66.2 | 183 | 106 | 115 | 106 | 27
11 | Cc1ccc(Nc2nccc(N(C)c3ccc4c(C)n(C)nc4c3)n2)cc1S(N)(=O)=O [Pazopanib] + O=C(O)C(=O)Nc1sc2c(c1C(=O)O)CCNC2 [TCS401] (first compound 0.4 µM, partner dose 1.66667 µM) | 83.5 | 95.4 | 101 | 105 | 125 | 117 | 148 | 90.6 | 72.8 | 36.5 | 46.5 | 55.3 | 106 | 144 | 99.4 | 72.2
12 | CCCCCCCCCCCCCCCCCCOP(=O)([O-])OC1CC[N+](C)(C)CC1 [Perifosine] + COc1cc2c(Oc3ccc4[nH]c(C)cc4c3F)ncnc2cc1OCCCN1CCCC1 [cediranib] (first compound 0.4 µM, partner dose 0.4 µM) | 103 | 48 | 242 | 61.2 | 133 | 53.7 | 66.2 | 61.1 | 60.4 | 68.3 | 115 | 53.7 | 86.7 | 63 | 79.4 | 307
13 | CCCCCCCCCCCCCCCCCCOP(=O)([O-])OC1CC[N+](C)(C)CC1 [Perifosine] + COc1ccc(-c2ccc3c(N4CCOCC4)nc(N4C[C@@H](C)O[C@@H](C)C4)nc3n2)cc1CO [KU0063794] (first compound 0.4 µM, partner dose 0.02 µM) | 148 | 28.4 | 57 | 63.6 | 145 | 78.7 | 40.3 | 84.1 | 206 | 128 | 114 | 217 | 90.5 | 163 | 108 | 146
14 | CC[C@]1(O)C[C@H]2CN(CCc3c([nH]c4ccccc34)[C@@](C(=O)OC)(c3cc4c(cc3OC)N(C=O)[C@H]3[C@@](O)(C(=O)OC)[C@H](OC(C)=O)[C@]5(CC)C=CCN6CC[C@]43[C@@H]65)C2)C1 [vincristine] + CCN(CC)CCCCNc1ncc2cc(-c3cc(OC)cc(OC)c3)c(NC(=O)NC(C)(C)C)nc2n1 [PD173074] (first compound 0.0001 µM, partner dose 0.1 µM) | 85.9 | 70.6 | 126 | 61.8 | 125 | 94.3 | 244 | 158 | 64.4 | 66.7 | 913 | 257 | 106 | 149 | 112 | 399
15 | N#CC[C@H](C1CCCC1)n1cc(-c2ncnc3[nH]ccc23)cn1 [ruxolitinib] + N#Cc1c(O)c2c(-c3ccc(-c4ccccc4O)cc3)csc2[nH]c1=O [A769662] (first compound 1 µM, partner dose 2 µM) | 80.2 | 96.4 | 149 | 93.5 | 62.1 | 97.3 | 44.1 | 72.6 | 42.6 | 188 | 126 | 71.4 | 96.7 | 45.6 | 107 | 35.9
16 | CCCCCCCCCCCCCCCCCCOP(=O)([O-])OC1CC[N+](C)(C)CC1 [Perifosine] + COc1cc(N2CCC(N3CCN(C)CC3)CC2)ccc1Nc1ncc(Cl)c(Nc2ccccc2S(=O)(=O)C(C)C)n1 [NVP-TAE684] (first compound 0.4 µM, partner dose 0.08 µM) | 140 | 379 | 88.4 | 96.6 | 192 | 163 | 334 | 97.6 | 258 | 160 | 80.7 | 65.9 | 119 | 81.1 | 94.7 | 183

From entry 7 to 9, copied from above:
Row | SMILES | cleaved PARP positive nuclei fraction (MZ2-MEL) [%] | cleaved PARP positive nuclei fraction (MeWo) [%] | cleaved PARP positive nuclei fraction (RPMI7951) [%] | cleaved PARP positive nuclei fraction (RVH-421) [%] | cleaved PARP positive nuclei fraction (SkMel28) [%] | cleaved PARP positive nuclei fraction (SkMel2) [%] | cleaved PARP positive nuclei fraction (SkMel30) [%] | cleaved PARP positive nuclei fraction (SkMel5) [%] | cleaved PARP positive nuclei fraction (UACC257) [%] | cleaved PARP positive nuclei fraction (UACC62) [%] | cleaved PARP positive nuclei fraction (WM115) [%] | cleaved PARP positive nuclei fraction (WM1716) [%] | cleaved PARP positive nuclei fraction (WM1745) [%] | cleaved PARP positive nuclei fraction (WM3526) [%] | cleaved PARP positive nuclei fraction (WM3619) [%] | cleaved PARP positive nuclei fraction (WM451Lu) [%]
7 | Cc1ccc(Nc2nccc(N(C)c3ccc4c(C)n(C)nc4c3)n2)cc1S(N)(=O)=O [Pazopanib] + O=C(Nc1ccccc1)c1cc([N+](=O)[O-])ccc1Cl [GW9662] (first compound 0.4 µM, partner dose 2 µM) | 93.8 | 86.1 | 141 | 86.9 | 147 | 82 | 93.3 | 77.4 | 183 | 105 | 218 | 56 | 153 | 80.8 | 110 | 136
8 | Cc1cn(-c2cc(NC(=O)c3ccc(C)c(Nc4nccc(-c5cccnc5)n4)c3)cc(C(F)(F)F)c2)cn1 [nilotinib] + N#Cc1c(O)c2c(-c3ccc(-c4ccccc4O)cc3)csc2[nH]c1=O [A769662] (first compound 0.2 µM, partner dose 2 µM) | 47.5 | 81.5 | 85.4 | 107 | 33.1 | 132 | 177 | 70.9 | 5.74 | 257 | 146 | 23.1 | 87.3 | 81.5 | 82.6 | 258
9 | O=C(/C=C/c1cccnc1)NCCCCC1CCN(C(=O)c2ccccc2)CC1 + CCCCCCCCCCCC1=C(O)C(=O)C=C(O)C1=O [Embelin] (first compound 0.01 µM, partner dose 1.2 µM) | 203 | 141 | 107 | 76 | 37.7 | 235 | 38.6 | 157 | 81.5 | 64.7 | 275 | 109 | 76 | 67.4 | 105 | 205
